Results are given in words; binding and its absence hold for the method and conditions named. Some results given as binding are weak or reduced against the parent protein; the word gives no strength. Where a sequence is shown, tags or fusion partners need not be part of it.
Molecular target: Gal-4-CycD2At fusion protein (Arabidopsis thaliana D-type cyclin D2 fused to the GAL4 DNA binding domain; bait plasmid pGBT9cycD2At) (Arabidopsis thaliana) (UniProt P04386+P42752)
Test: yeast two-hybrid screen (growth on His- / 3-aminotriazole medium and beta-galactosidase activity), cyclin D2 as GAL4 DNA binding domain bait

Amino acid sequences for entries named in this document (tags omitted). A change or cut given only in a name is not applied to a line headed by its entry.
UniProt P04386: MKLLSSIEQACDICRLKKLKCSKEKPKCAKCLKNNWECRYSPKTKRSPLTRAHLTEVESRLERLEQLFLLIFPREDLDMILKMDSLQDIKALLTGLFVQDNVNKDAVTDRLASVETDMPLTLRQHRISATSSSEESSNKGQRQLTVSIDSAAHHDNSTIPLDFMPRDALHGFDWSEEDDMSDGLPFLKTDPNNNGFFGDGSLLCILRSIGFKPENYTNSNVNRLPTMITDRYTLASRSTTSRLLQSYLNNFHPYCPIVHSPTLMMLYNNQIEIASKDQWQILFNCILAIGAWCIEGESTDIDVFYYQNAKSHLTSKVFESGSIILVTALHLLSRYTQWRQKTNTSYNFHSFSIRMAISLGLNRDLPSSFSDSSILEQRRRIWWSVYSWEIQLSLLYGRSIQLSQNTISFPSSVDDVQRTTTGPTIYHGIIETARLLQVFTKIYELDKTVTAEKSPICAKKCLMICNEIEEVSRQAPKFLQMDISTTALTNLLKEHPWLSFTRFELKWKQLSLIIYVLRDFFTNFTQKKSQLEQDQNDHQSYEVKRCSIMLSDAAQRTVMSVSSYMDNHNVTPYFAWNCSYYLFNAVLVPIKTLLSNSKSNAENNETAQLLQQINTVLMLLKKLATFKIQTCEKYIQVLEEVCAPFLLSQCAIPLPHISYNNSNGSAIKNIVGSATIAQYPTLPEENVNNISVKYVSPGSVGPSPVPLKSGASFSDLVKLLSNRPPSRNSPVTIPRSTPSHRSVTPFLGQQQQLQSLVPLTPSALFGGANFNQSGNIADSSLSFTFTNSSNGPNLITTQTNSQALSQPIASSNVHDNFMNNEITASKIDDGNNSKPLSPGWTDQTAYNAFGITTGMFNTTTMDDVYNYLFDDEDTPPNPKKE
UniProt P42752: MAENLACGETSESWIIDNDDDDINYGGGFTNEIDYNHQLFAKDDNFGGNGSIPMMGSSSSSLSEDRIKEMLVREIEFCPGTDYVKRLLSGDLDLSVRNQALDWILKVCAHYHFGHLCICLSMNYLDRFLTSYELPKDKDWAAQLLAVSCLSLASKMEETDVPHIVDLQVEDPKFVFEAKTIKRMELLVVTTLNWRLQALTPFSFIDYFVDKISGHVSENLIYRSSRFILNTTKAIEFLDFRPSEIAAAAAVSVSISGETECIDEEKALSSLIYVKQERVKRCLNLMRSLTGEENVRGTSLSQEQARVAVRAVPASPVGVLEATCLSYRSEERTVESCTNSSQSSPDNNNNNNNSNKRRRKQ

- binding: binds
B1: BRO1 (clone from the Arabidopsis thaliana cDNA / GAL4 activation domain fusion library, pACT BRO1) (protein, not shown: large carriers)
chain: MASKKARKPNRAEKKLTRSCFKKQVPQHNNINTSITLDQTSTSTIVSTCSSSSTTLSSPLDTIYSVPSPSPAAVLTSPGGCCTPKAKKSRIPEMLTCPPAPKKQRVSKNCVLRRRQIVFFAPPEIELFFVNAHDR

Source: patent publication US7230089
